Results taken from patent US20160257751A1 (SORRENTO THERAPEUTICS, published 2016).
Results are given in words; binding and its absence hold for the method and conditions named. Some entries that bind do so weakly or less than the wild type.

Chains of the proteins cited; added tags and fusions are not shown. Residues count along the entry.
UniProt Q08722, residues 19-139: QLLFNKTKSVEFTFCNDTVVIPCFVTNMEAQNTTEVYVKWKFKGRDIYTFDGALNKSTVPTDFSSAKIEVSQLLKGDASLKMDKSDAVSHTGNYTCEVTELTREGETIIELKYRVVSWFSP

Legend:
human CD47 (human) [1] = target: human CD47 (human) (UniProt Q08722); test: ELISA, IgG captured on goat anti-human FD antibody, biotinylated CD47 pre-complexed with neutravidin-AP
human CD47 (human) [2] = target: human CD47 (human) (UniProt Q08722); test: ELISA: IgG at 1 ug/ml captured on goat anti-human Fd antibody; serially diluted biotinylated CD47 pre-complexed with neutravidin-AP; PNPP absorbance
human CD47 (human) [3] = target: human CD47 (human) (UniProt Q08722); test: affinity screen of CDR variants
human CD47 (human) [4] = target: human CD47 (human) (UniProt Q08722); test: ELISA, antibody captured on goat anti-human lambda, biotinylated CD47 pre-complexed with neutravidin-AP
human CD47 (human) [5] = target: human CD47 (human) (UniProt Q08722); test: ELISA: antibody at 1.3 ug/ml captured on goat anti-human lambda antibody; serially diluted biotinylated CD47 pre-complexed with neutravidin-AP; PNPP absorbance
human CD47 (human) [6] = target: human CD47 (human) (UniProt Q08722); test: affinity screen of CDR variants; ELISA
human CD47 (human) [7] = target: human CD47 (human) (UniProt Q08722); test: affinity screen of CDR variants and combinatorial library, relative to C47B10-1
human CD47 (human) [8] = target: human CD47 (human) (UniProt Q08722); test: ELISA, antibody captured on goat anti-lambda, biotinylated CD47, neutravidin-AP detection
human CD47 (human) [9] = target: human CD47 (human) (UniProt Q08722); test: ELISA: antibody at 1 ug/ml captured on goat anti-lambda antibody; serially diluted biotinylated CD47, then neutravidin-AP; PNPP absorbance
human CD47 [10] = target: T1, human CD47 (human, UniProt Q08722 19-139, limits assumed, biotinylated in the ELISAs (site not stated)); test: ELISA, IgG captured on goat anti-human FD antibody, biotinylated CD47 pre-complexed with neutravidin-AP
T1 construct: also called biotinylated CD47; CD47 receptor

human CD47 [11] = target: T1, human CD47; test: ELISA: IgG at 1 ug/ml captured on goat anti-human Fd antibody; serially diluted biotinylated CD47 pre-complexed with neutravidin-AP; PNPP absorbance

B1: C47A8-CL (antibody, V domains shown)
VH: QVQLVQSGAEVKKPGASVKVSCKASGYTFTSYYMHWVRQAPGQGLEWMGIINPSGGSTSYAQKFQGRVTMTRDTSTSTVYMELSSLRSEDTAVYYCARSTLWFSEFDYWGQGTLVTVSS
VL: QSVLTQPSSVSASPGQSITISCSGTSSDVGGHNYVSWYQQHPGKAPKLMIYDVTKRPSGVPDRFSGSKSGNTASLTVSGLQAEDEADYYCLSYAGSRVYVFGTGTKLTVL
binding (human CD47 (human) [1]): binds | binding (human CD47 (human) [2]): binds

B2: C47B10-L1A-A4 (antibody, V domains shown)
VH: QVQLVQSGAEVKKPGASVKVSCKASGYTFTSYYMHWVRQAPGQGLEWMGIINPSGGSTSYAQKFQGRVTMTRDTSTSTVYMELSSLRSEDTAVYYCARSTLWFSEFDYWGQGTLVTVSS
VL: QSALTQPASVSGSPGQSISISCTGTSSDVVGHNYVSWYQQHPGKAPKLMIYDVRNRPSGVSNRFSGSKSGSTASLTISGLQTEDEADYYCNSYTGSRTYVFGSGTKLTVL
binding (human CD47 (human) [3]): binds | binding (human CD47 (human) [4]): binds | binding (human CD47 (human) [5]): binds

B3: C47B10-H3-D4 (antibody, V domains shown)
VH: QVQLVQSGAEVKKPGASVKVSCKASGYTFTSYYMHWVRQAPGQGLEWMGIINPSGGSTSYAQKFQGRVTMTRDTSTSTVYMELSSLRSEDTAVYYCARSTLWVSEFDYWGQGTLVTVSS
VL: QSALTQPASVSGSPGQSISISCTGTSSDVGGHNYVSWYQQHPGKAPKLMIYDVRNRPSGVSNRFSGSKSGSTASLTISGLQTEDEADYYCNSYTGSRTYVFGSGTKLTVL
binding (human CD47 (human) [6]): binds | binding (human CD47 (human) [4]): binds | binding (human CD47 (human) [5]): binds

B4: C47B10-2A9S (antibody, V domains shown)
VH: QVQLVQSGAEVKKPGASVKVSCKASGYTFTSYYMHWVRQAPGQGLEWMGIINPSGGSTSYAQKFQGRVTMTRDTSTSTVYMELSSLRSEDTAVYYCARSRLWFSEFDYWGQGTLVTVSS
VL: QSALTQPASVSGSPGQSISISCTGTSSDVGGHNYVSWYQQHPGKAPKLMIYDVRNRPSGVSNRFSGSKSGSTASLTISGLQTEDEADYYCNSYTGSRTYVFGSGTKLTVL
binding (human CD47 (human) [7]): binds | binding (human CD47 (human) [8]): binds | binding (human CD47 (human) [9]): binds

B5: C47B10-2B9S (antibody, V domains shown)
VH: QVQLVQSGAEVKKPGASVKVSCKASGYTFTSYYMHWVRQAPGQGLEWMGIINPSGGSTSYAQKFQGRVTMTRDTSTSTVYMELSSLRSEDTAVYYCARSTLWFSAFDYWGQGTLVTVSS
VL: QSVLTQPASVSGSPGQSISISCTGTSSDVGGHNYVSWYQQHPGKAPKLMIYDVRNRPSGVSNRFSGSKSGSTASLTISGLQTEDEADYYCNSYTGSRTYVFGSGTKLTVL
binding (human CD47 (human) [7]): binds | binding (human CD47 (human) [8]): binds | binding (human CD47 (human) [9]): binds

B6: C47A8 (antibody, V domains shown)
VH: QVQLVQSGAEVKKPGASVKVSCKASGYTFTSYYMHWVRQAPGQGLEWMGIINPSGGSTSYAQKFQGRVTMTRDTSTSTVYMELSSLRSEDTAVYYCARSTLWFSEFDYWGQGTLVTVSS
VL: QSVLTQPSSVSASPGQSITISCSGTSSDVGGHNYVSWYQQHPGKAPKLMIYDVTKRPSGVPDRFSGSKSGNTASLTVSGLQAEDEADYYCCSYAGSRVYVFGTGTKLTVL
notes: also called CD47A8
binding (human CD47 [10]): binds | binding (human CD47 [11]): binds

B7: C47A8-CQ (antibody, V domains shown)
VH: QVQLVQSGAEVKKPGASVKVSCKASGYTFTSYYMHWVRQAPGQGLEWMGIINPSGGSTSYAQKFQGRVTMTRDTSTSTVYMELSSLRSEDTAVYYCARSTLWFSEFDYWGQGTLVTVSS
VL: QSVLTQPSSVSASPGQSITISCSGTSSDVGGHNYVSWYQQHPGKAPKLMIYDVTKRPSGVPDRFSGSKSGNTASLTVSGLQAEDEADYYCQSYAGSRVYVFGTGTKLTVL
binding (human CD47 (human) [1]): binds | binding (human CD47 (human) [2]): binds

B8: C47A8-CS (antibody, V domains shown)
VH: QVQLVQSGAEVKKPGASVKVSCKASGYTFTSYYMHWVRQAPGQGLEWMGIINPSGGSTSYAQKFQGRVTMTRDTSTSTVYMELSSLRSEDTAVYYCARSTLWFSEFDYWGQGTLVTVSS
VL: QSVLTQPSSVSASPGQSITISCSGTSSDVGGHNYVSWYQQHPGKAPKLMIYDVTKRPSGVPDRFSGSKSGNTASLTVSGLQAEDEADYYCSSYAGSRVYVFGTGTKLTVL
binding (human CD47 (human) [1]): binds | binding (human CD47 (human) [2]): binds

B9: C47B10 (antibody, V domains shown)
VH: QVQLVQSGAEVKKPGASVKVSCKASGYTFTSYYMHWVRQAPGQGLEWMGIINPSGGSTSYAQKFQGRVTMTRDTSTSTVYMELSSLRSEDTAVYYCARSTLWFSEFDYWGQGTLVTVSS
VL: QSVLTQPASVSGSPGQSISISCTGTSSDVGGHNYVSWYQQHPGKAPKLMIYDVRNRPSGVSNRFSGSKSGSTASLTISGLQTEDEADYYCNSYTGSRTYVFGSGTKLTVL
notes: lambda light chain (captured with anti-human lambda); also called CD47B10
binding (human CD47 (human) [8]): binds | binding (human CD47 (human) [4]): binds | binding (human CD47 (human) [9]): binds | binding (human CD47 (human) [5]): binds

B10: C47A8-CA (antibody, V domains shown)
VH: QVQLVQSGAEVKKPGASVKVSCKASGYTFTSYYMHWVRQAPGQGLEWMGIINPSGGSTSYAQKFQGRVTMTRDTSTSTVYMELSSLRSEDTAVYYCARSTLWFSEFDYWGQGTLVTVSS
VL: QSVLTQPSSVSASPGQSITISCSGTSSDVGGHNYVSWYQQHPGKAPKLMIYDVTKRPSGVPDRFSGSKSGNTASLTVSGLQAEDEADYYCASYAGSRVYVFGTGTKLTVL
binding (human CD47 (human) [1]): binds | binding (human CD47 (human) [2]): binds

B11: C47B10-H3-D3 (antibody, V domains shown)
VH: QVQLVQSGAEVKKPGASVKVSCKASGYTFTSYYMHWVRQAPGQGLEWMGIINPSGGSTSYAQKFQGRVTMTRDTSTSTVYMELSSLRSEDTAVYYCARSTLWFSEFDWWGQGTLVTVSS
VL: QSALTQPASVSGSPGQSISISCTGTSSDVGGHNYVSWYQQHPGKAPKLMIYDVRNRPSGVSNRFSGSKSGSTASLTISGLQTEDEADYYCNSYTGSRTYVFGSGTKLTVL
binding (human CD47 (human) [3]): binds | binding (human CD47 (human) [4]): binds | binding (human CD47 (human) [5]): binds

B12: C47B10-L3-B2 (antibody, V domains shown)
VH: QVQLVQSGAEVKKPGASVKVSCKASGYTFTSYYMHWVRQAPGQGLEWMGIINPSGGSTSYAQKFQGRVTMTRDTSTSTVYMELSSLRSEDTAVYYCARSTLWFSEFDYWGQGTLVTVSS
VL: QSALTQPASVSGSPGQSISISCTGTSSDVGGHNYVSWYQQHPGKAPKLMIYDVRNRPSGVSNRFSGSKSGSTASLTISGLQTEDEADYYCTSYTGSRTYVFGSGTKLTVL
binding (human CD47 (human) [3]): binds | binding (human CD47 (human) [4]): binds | binding (human CD47 (human) [5]): binds

B13: C47B10-L1A-A10 (antibody, V domains shown)
VH: QVQLVQSGAEVKKPGASVKVSCKASGYTFTSYYMHWVRQAPGQGLEWMGIINPSGGSTSYAQKFQGRVTMTRDTSTSTVYMELSSLRSEDTAVYYCARSTLWFSEFDYWGQGTLVTVSS
VL: QSALTQPASVSGSPGQSISISCTGTSSDVGWHNYVSWYQQHPGKAPKLMIYDVRNRPSGVSNRFSGSKSGSTASLTISGLQTEDEADYYCNSYTGSRTYVFGSGTKLTVL
binding (human CD47 (human) [6]): binds | binding (human CD47 (human) [4]): binds | binding (human CD47 (human) [5]): binds

B14: C47B10-1H4S (antibody, V domains shown)
VH: QVQLVQSGAEVKKPGASVKVSCKASGYTFTSYYMHWVRQAPGQGLEWMGIINPSGGSTSYAQKFQGRVTMTRDTSTSTVYMELSSLRSEDTAVYYCARSTLWFSEFDYWGQGTLVTVSS
VL: QSALTQPASVSGSPGQSISISCTGTSVDVGGHNYVSWYQQHPGKAPKLMIYDVRNRPSGVSNRFSGSKSGSTASLTISGLQTEDEADYYCNSYTGSRTYVFGSGTKLTVL
binding (human CD47 (human) [7]): binds

B15: C47B10-2C1S (antibody, V domains shown)
VH: QVQLVQSGAEVKKPGASVKVSCKASGYTFTSYYMHWVRQAPGQGLEWMGIINPSGGSTSYAQKFQGRVTMTRDTSTSTVYMELSSLRSEDTAVYYCARSTLWFTEFDYWGQGTLVTVSS
VL: QSVLTQPASVSGSPGQSISISCTGTSSDVGGHNYVSWYQQHPGKAPKLMIYDVRNRPSGVSNRFSGSKSGSTASLTISGLQTEDEADYYCNSYTGSRTYVFGSGTKLTVL
binding (human CD47 (human) [7]): binds

B16: C47B10-2C4S (antibody, V domains shown)
VH: QVQLVQSGAEVKKPGASVKVSCKASGYTFTSYYMHWVRQAPGQGLEWMGIINPSGGSTSYAQKFQGRVTMTRDTSTSTVYMELSSLRSEDTAVYYCARSTLWFSSFDYWGQGTLVTVSS
VL: QSVLTQPASVSGSPGQSISISCTGTSSDVGGHNYVSWYQQHPGKAPKLMIYDVRNRPSGVSNRFSGSKSGSTASLTISGLQTEDEADYYCNSYTGSRTYVFGSGTKLTVL
binding (human CD47 (human) [7]): binds
